Reference: PubChem BioAssay AID686937 (Drosophila RNAi Screening Center, 2013)
The screen tested about 23,000 reagents; this is a random part of those that have a named target and a result. 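Reduced-secretion tags in replicate 1 do not always agree with the z-scores; no criterion for assigning the tags was given.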 The numbers tell different reagents against one gene apart. Names joined by + are all predicted targets of the reagent. Not all columns of the deposit are shown. Reagent sequences are not shown. The record does not give: the amount of reagent.

- Test: 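Genes whose loss weakens secretory pathway function in fly cells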 (primary screen)
- System: Drosophila S2 cells expressing secreted horseradish peroxidase
- Reagent: long dsRNA against Drosophila genes
- Duration: about 5.5 days (5 days dsRNA, then 12 h reporter induction)
- Challenge: reporter expression induced after 5 days of dsRNA, read 12 h later; inducer not stated
- Measurement: 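Chemiluminescent measurement of peroxidase in the medium 12 h after reporter induction, following 5 days of dsRNA, given as a z-score per plate; higher means more secretion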
- Scale: z-score: higher = more reporter secreted into medium

Ns2 (Nucleostemin 2) | z-score, replicate 1: 0.37
Pdss2 (Decaprenyl diphosphate synthase subunit 2) | z-score, replicate 1: 0.11
Wdr33 (WD repeat domain 33) | z-score, replicate 1: -0.63
Dgat2 (Diacylglycerol O-acyltransferase 2) | z-score, replicate 1: 0.21
betaTub97EF (beta-Tubulin at 97EF) #1 | z-score, replicate 1: -1.6; phenotype, replicate 1: reduced secretion
betaTub97EF (beta-Tubulin at 97EF) #2 | z-score, replicate 1: 0.11
betaTub97EF (beta-Tubulin at 97EF) #3 | z-score, replicate 1: 0.13
gl (glass) | z-score, replicate 1: 0.32
ana2 (anastral spindle 2) | z-score, replicate 1: 0.3
Fst (Frost) | z-score, replicate 1: 0.97
CG33269 | z-score, replicate 1: -1.84; phenotype, replicate 1: reduced secretion
RpS16 (Ribosomal protein S16) | z-score, replicate 1: -4.13; phenotype, replicate 1: reduced secretion
CG5890 | z-score, replicate 1: 0.19
Rad17 | z-score, replicate 1: 0.1
CG34159 | z-score, replicate 1: 0.91
unc80 (uncoordinated 80) | z-score, replicate 1: 0.35
asRNA:CR31144 + RpL3 | z-score, replicate 1: -1.87; phenotype, replicate 1: reduced secretion
Tango11 (Transport and Golgi organization 11) #1 | z-score, replicate 1: -1.88; phenotype, replicate 1: reduced secretion
Tango11 (Transport and Golgi organization 11) #2 | z-score, replicate 1: -0.03
Pkn + Tsen15 | z-score, replicate 1: 1
AnxB9 (Annexin B9) | z-score, replicate 1: 0.48
insc (inscuteable) | z-score, replicate 1: -0.03
Sr-CIV (Scavenger receptor class C, type IV) | z-score, replicate 1: 0.22
dnc (dunce) #1 | z-score, replicate 1: 0.11
dnc (dunce) #2 | z-score, replicate 1: 0.48
dnc (dunce) #3 | z-score, replicate 1: 0.51
dnc (dunce) #4 | z-score, replicate 1: 0.05
dnc (dunce) #5 | z-score, replicate 1: -0.01
mthl10 (methuselah-like 10) #1 | z-score, replicate 1: 0.19
mthl10 (methuselah-like 10) #2 | z-score, replicate 1: 0.61
DIP-delta (Dpr-interacting protein delta) #1 | z-score, replicate 1: -0.51
DIP-delta (Dpr-interacting protein delta) #2 | z-score, replicate 1: 0.36
Nup62 (Nucleoporin 62kD) | z-score, replicate 1: -1.02
Cnot4 (CCR4-NOT transcription complex subunit 4) #1 | z-score, replicate 1: -0.34
Cnot4 (CCR4-NOT transcription complex subunit 4) #2 | z-score, replicate 1: -0.34
Flad2 (Flavin adenine dinucleotide synthetase 2) | z-score, replicate 1: 0.12
CG17768 + LSm-4 | z-score, replicate 1: -1.08
NKAIN (Na,K-ATPase Interacting) #1 | z-score, replicate 1: 0.06
NKAIN (Na,K-ATPase Interacting) #2 | z-score, replicate 1: -0.01
CG12541 #1 | z-score, replicate 1: 0.06
CG12541 #2 | z-score, replicate 1: 0.56

Sorted by “z-score, replicate 1” (low to high): 2 of the entries above
betaTub97EF (beta-Tubulin at 97EF) #1 | z-score, replicate 1: -1.6; phenotype, replicate 1: reduced secretion
betaTub97EF (beta-Tubulin at 97EF) #2 | z-score, replicate 1: 0.11
